For 3 substances, binding results are on record in paper PMC4613515.

Protein sequences, listed by entry. Tags and fused reporters are not part of them. Lines headed by an entry give the natural chain unless they say otherwise; changes in a name come on top.
UniProt Q00536: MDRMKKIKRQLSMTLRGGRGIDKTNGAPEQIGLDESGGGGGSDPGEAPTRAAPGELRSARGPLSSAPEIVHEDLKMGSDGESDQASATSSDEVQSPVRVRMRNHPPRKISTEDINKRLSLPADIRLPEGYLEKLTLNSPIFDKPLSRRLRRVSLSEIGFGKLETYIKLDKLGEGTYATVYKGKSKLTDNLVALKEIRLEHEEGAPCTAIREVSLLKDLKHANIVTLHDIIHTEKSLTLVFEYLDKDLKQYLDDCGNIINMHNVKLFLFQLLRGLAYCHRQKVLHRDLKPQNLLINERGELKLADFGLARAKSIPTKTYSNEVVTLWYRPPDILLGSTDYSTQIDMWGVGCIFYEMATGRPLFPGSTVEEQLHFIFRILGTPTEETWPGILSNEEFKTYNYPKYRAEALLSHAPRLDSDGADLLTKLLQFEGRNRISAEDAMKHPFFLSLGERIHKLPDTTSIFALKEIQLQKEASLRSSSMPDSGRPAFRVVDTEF
UniProt Q8N7R7: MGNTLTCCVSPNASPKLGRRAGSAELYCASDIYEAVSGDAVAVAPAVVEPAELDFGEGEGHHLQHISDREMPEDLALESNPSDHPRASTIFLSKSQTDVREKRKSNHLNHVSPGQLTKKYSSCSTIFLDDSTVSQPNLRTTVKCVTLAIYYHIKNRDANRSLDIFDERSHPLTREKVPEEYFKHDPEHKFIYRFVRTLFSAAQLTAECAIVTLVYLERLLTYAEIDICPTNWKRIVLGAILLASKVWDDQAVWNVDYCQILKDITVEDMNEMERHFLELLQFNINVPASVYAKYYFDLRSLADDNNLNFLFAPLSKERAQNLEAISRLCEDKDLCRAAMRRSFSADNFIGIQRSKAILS

These are yes or no findings as the source states them, for the method shown. Binding seen in cells or lysates may run through a third protein. Some binding calls cover weakened binding; strength is not graded here.

In the assay the target is FLAG–WT PCTAIRE-1 (isoform 1) (human) (UniProt Q00536). The experiment in a line: co-IP; HA–cyclin Y-like-1 (WT, S122A or S344A) co-expressed with FLAG–WT PCTAIRE-1 in COS-1; lysates immunoprecipitated with FLAG–agarose, immunoblot.

For “HA–WT cyclin Y-like-1 (from UniProt Q8N7R7 1-359)”, the binding result is “binds”.
The value for “HA–cyclin Y-like-1 S122A (from UniProt Q8N7R7 1-359)” was “no binding”.
The value for “HA–cyclin Y-like-1 S344A (from UniProt Q8N7R7 1-359)” was “no binding”.
